The list shows a part of the results.
Columns and labels:
Assay in all cases: log2 fold change, soluble protein after heating vs DMSO (PISA); higher = thermal stabilisation; K562 lysate, 10 uM; active = over 0.2 and 3.5 SD of the protein, either way, in both replicates (recomputed)
[1] = compound: CCCS(=O)(=O)Nc1ccc(F)c(C(=O)c2c[nH]c3ncc(-c4ccc(Cl)cc4)cc23)c1F [vemurafenib]
Procedure, shortened: (§1)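 K562 pellets were dounce-homogenised in PBS pH 7.4 containing 1 mM MgCl2, and the crude extract, at 1 mg/mL protein, was exposed to 10 μM compound for 30 min. Aliquots were heated for 3 min across 48°C-58°C, pooled, brought to 0.5% NP-40 at 4°C and spun at 21,000xg for 90 min, with the supernatant taken as soluble protein. TMTpro 16plex LC-MS/MS with equalised channel sums quantified that protein. Values are log-two fold changes in thermal stability relative to solvent controls, taken from duplicates.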

Protein sequences, listed by entry. Tags and fused reporters are not part of them. Lines headed by an entry give the natural chain unless they say otherwise; changes in a name come on top.
UniProt P17174: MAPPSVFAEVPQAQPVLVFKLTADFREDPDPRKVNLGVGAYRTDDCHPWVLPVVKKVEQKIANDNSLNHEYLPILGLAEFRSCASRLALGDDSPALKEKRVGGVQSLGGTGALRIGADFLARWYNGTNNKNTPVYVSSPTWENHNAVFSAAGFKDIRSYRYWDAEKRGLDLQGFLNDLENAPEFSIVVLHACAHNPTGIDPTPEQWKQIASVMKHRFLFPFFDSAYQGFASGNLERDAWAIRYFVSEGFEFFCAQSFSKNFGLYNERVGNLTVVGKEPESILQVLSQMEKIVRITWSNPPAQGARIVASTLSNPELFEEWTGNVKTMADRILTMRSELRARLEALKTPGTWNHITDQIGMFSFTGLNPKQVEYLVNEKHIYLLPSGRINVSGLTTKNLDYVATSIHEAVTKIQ
UniProt Q9Y248: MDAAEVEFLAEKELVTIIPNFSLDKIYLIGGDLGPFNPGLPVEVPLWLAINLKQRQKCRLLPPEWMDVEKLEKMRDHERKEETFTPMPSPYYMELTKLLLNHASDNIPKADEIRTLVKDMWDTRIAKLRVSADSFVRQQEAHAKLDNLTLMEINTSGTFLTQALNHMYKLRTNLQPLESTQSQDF
UniProt Q53EU6: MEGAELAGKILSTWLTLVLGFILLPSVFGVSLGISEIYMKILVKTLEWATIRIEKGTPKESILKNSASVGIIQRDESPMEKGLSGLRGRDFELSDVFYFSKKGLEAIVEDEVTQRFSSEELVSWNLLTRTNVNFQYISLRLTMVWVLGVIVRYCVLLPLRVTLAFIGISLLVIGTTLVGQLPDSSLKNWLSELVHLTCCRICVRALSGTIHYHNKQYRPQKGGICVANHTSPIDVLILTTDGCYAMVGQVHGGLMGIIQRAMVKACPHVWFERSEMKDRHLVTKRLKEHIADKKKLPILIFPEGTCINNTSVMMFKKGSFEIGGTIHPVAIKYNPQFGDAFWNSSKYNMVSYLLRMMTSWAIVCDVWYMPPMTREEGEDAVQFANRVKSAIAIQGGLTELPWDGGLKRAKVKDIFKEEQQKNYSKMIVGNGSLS
UniProt Q96EK6: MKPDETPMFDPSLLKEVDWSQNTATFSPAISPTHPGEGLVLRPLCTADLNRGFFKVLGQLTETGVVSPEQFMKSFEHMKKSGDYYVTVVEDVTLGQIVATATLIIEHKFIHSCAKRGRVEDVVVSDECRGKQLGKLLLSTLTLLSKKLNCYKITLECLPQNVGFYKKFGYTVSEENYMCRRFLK
UniProt Q92990: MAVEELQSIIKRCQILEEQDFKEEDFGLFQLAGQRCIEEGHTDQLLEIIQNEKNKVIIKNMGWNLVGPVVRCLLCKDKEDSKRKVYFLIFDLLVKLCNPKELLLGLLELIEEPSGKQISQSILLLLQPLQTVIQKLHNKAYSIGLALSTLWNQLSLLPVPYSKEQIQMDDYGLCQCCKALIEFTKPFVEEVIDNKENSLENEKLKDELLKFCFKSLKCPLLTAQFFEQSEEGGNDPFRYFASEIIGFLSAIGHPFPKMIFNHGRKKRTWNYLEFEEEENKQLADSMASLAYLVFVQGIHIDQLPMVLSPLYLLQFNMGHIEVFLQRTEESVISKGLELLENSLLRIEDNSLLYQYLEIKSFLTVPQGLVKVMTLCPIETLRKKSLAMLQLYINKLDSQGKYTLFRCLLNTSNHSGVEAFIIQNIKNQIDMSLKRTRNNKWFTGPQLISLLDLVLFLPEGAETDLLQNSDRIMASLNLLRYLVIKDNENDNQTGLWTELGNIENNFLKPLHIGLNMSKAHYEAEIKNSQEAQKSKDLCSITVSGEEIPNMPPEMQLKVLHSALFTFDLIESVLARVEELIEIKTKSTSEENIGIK
UniProt Q8TBA6: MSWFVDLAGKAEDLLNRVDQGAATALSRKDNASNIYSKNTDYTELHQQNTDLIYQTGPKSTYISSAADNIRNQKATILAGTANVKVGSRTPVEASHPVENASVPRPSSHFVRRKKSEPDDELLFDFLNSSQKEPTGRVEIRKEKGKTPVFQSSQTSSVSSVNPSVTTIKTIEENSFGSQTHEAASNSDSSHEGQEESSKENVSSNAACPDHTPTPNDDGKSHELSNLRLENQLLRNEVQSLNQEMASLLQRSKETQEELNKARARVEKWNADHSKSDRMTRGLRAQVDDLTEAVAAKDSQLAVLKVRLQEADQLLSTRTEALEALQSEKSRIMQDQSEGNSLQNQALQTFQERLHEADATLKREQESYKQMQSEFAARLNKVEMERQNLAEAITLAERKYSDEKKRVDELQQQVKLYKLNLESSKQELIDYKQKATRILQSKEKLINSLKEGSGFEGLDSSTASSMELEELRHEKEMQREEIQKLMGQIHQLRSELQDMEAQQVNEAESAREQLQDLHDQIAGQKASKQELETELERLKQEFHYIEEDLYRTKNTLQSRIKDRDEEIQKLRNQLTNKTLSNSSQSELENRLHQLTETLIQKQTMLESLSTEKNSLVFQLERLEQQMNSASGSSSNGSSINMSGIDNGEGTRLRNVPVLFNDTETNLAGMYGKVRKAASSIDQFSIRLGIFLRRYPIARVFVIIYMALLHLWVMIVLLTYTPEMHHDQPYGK
UniProt P46926: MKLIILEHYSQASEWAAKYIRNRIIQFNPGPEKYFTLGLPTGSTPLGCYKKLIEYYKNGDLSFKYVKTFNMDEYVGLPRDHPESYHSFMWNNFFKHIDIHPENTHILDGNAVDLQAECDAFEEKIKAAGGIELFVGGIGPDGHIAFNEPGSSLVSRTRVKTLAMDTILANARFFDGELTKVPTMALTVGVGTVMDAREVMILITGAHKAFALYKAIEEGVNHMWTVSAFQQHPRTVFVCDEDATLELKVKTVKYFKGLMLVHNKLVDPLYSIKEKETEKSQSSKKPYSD
UniProt O95249: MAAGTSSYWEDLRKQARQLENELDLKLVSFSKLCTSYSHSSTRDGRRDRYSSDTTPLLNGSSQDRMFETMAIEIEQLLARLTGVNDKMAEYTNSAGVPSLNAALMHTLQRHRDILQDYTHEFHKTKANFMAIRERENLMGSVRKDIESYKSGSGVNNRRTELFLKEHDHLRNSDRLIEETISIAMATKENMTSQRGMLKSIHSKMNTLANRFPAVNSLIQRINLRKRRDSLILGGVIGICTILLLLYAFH
UniProt Q9NWU2, whole entry, looked up: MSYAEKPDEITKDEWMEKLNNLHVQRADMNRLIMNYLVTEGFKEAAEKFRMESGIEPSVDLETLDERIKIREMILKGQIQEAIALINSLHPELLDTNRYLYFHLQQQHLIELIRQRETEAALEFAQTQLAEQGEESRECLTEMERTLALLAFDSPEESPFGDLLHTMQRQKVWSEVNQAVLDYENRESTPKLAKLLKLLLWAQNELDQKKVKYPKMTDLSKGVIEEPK
UniProt P13224: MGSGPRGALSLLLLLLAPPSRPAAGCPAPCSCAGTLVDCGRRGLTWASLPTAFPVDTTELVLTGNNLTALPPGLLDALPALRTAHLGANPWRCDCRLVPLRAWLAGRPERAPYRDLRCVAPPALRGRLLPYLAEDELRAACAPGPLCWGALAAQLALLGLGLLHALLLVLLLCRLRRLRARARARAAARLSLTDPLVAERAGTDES
UniProt Q13098: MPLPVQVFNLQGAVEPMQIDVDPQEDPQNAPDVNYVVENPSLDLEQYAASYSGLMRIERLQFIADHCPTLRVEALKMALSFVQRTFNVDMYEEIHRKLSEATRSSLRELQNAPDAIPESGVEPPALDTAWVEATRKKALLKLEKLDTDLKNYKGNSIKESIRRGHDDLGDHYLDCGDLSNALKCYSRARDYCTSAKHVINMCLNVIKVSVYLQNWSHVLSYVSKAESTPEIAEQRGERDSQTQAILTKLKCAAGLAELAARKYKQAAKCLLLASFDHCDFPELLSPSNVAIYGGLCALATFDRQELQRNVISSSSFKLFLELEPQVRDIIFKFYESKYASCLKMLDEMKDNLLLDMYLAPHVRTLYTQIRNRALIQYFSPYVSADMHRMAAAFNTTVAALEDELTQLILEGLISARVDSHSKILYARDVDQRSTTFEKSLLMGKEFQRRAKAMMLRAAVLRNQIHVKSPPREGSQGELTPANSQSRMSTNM
UniProt Q9BRT9, whole entry, looked up: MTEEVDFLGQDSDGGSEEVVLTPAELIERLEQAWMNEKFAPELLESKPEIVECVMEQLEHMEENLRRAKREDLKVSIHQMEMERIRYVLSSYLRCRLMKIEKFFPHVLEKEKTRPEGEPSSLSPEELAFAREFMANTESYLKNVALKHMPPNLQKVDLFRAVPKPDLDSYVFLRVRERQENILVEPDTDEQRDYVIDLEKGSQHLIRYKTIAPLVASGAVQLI
UniProt Q9BYB4: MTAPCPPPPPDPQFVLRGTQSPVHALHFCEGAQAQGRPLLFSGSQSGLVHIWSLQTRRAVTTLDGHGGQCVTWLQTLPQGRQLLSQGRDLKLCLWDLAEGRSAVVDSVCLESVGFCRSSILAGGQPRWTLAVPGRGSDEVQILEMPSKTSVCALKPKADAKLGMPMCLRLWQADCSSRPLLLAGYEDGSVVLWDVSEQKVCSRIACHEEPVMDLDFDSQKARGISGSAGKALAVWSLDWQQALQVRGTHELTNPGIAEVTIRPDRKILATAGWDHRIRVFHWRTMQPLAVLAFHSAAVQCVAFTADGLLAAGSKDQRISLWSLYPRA
UniProt P15586: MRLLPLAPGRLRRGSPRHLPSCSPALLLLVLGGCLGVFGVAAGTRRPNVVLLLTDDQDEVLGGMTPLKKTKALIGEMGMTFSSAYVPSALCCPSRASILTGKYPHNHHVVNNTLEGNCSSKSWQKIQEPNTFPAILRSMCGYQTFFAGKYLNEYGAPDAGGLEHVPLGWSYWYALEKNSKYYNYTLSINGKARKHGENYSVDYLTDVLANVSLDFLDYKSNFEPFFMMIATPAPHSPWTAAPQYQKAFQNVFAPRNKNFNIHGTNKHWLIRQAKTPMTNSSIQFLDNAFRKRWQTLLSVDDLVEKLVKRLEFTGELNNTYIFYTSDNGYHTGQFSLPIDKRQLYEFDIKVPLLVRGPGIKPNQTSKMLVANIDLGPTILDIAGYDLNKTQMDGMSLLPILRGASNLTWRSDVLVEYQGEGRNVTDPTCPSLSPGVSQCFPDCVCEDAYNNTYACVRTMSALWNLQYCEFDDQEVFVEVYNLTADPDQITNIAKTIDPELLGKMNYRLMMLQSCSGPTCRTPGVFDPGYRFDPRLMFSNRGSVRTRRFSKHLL
UniProt Q5T7V8: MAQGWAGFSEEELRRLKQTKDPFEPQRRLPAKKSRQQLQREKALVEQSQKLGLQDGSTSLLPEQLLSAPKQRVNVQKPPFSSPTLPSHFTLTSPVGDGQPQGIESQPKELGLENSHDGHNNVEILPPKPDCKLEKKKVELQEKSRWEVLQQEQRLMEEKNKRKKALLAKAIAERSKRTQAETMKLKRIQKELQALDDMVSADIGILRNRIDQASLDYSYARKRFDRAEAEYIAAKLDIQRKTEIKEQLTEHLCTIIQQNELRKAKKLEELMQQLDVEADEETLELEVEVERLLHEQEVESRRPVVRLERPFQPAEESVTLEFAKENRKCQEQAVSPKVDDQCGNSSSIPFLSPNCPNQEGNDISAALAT
UniProt O75420: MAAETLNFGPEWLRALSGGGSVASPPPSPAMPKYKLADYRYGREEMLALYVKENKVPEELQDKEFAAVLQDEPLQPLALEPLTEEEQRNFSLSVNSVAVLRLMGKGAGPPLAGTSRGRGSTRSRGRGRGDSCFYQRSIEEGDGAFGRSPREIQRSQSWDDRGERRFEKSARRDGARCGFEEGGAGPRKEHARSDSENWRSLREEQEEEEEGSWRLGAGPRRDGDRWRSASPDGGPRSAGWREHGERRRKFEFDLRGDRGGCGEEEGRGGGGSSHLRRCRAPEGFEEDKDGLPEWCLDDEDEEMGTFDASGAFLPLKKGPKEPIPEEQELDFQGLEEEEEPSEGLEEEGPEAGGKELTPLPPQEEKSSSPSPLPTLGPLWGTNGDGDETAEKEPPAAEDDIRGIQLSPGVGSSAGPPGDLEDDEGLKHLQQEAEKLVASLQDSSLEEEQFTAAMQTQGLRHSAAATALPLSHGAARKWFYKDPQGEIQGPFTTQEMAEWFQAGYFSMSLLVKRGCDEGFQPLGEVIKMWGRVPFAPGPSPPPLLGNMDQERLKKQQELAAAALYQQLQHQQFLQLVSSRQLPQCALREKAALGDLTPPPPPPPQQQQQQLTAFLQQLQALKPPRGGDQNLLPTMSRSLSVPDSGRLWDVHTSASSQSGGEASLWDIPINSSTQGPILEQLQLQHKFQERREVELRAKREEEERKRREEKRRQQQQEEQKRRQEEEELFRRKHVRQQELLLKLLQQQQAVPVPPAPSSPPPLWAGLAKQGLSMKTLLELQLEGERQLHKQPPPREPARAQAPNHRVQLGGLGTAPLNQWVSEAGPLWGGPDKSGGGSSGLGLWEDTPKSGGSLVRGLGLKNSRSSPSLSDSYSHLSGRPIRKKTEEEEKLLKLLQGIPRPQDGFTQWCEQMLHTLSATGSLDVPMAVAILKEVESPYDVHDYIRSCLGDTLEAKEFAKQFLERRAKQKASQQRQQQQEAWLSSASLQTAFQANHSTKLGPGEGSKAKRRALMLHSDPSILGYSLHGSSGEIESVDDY

[2] = compound: CCCS(=O)(=O)Nc1ccc(F)c(C(=O)c2c[nH]c3ncc(Cl)cc23)c1F
Procedure, shortened: as §1

[3] = compound: CCN(CCCOc1ccc2c(Nc3cc(CC(=O)Nc4cccc(F)c4)[nH]n3)ncnc2c1)CCOP(=O)(O)O [barasertib]
Procedure, shortened: as §1

[4] = compound: CC[C@@H]1C(=O)N(C)c2cnc(Nc3ccc(C(=O)NC4CCN(C)CC4)cc3OC)nc2N1C1CCCC1
Procedure, shortened: as §1

[5] = compound: CC[C@@H]1C(=O)N(C)c2cnc(Nc3ccc(C(=O)N[C@H]4CC[C@H](N5CCN(CC6CC6)CC5)CC4)cc3OC)nc2N1C(C)C [volasertib]
Procedure, shortened: as §1

[6] = compound: CCn1c(C(=O)N(C2CC2)C2CC2)cc2c3c(ncn3C)c(Nc3cc(C)n(C)n3)nc21
Procedure, shortened: as §1

[7] = compound: CCn1cc(-c2ccnc3[nH]c(-c4cccc(CN(C)C)c4)cc23)c(-c2ccc(NC(=O)N(C)C)cc2)n1
Procedure, shortened: as §1

[8] = compound: CN1CCC(CNc2ccc3ncc(-c4cccc(OC(F)(F)F)c4)n3n2)CC1
Procedure, shortened: as §1

[9] = compound: CN1CCN(CCOc2cc(OC3CCOCC3)c3c(Nc4c(Cl)ccc5c4OCO5)ncnc3c2)CC1 [saracatinib]
Procedure, shortened: as §1

[10] = compound: CN1CCN(c2nc(C3=C(c4c[nH]c5ccccc45)C(=O)NC3=O)c3ccccc3n2)CC1 [sotrastaurin]
Procedure, shortened: as §1

Measured: log2 fold change

GOT1 (UniProt P17174)
inactive: [1] -0.004 | [2] -0.023 | [3] -0.032 | [4] 0.008 | [5] 0.022 | [6] 0.017 | [7] -0.038 | [8] 0.051 | [9] -0.011 | [10] -0.023

GLOD4 isoform 2 (UniProt Q9HC38)
inactive: [1] 0.023 | [2] -0.009 | [3] 0.012 | [4] -0.043 | [5] -0.001 | [6] -0.007 | [7] 0.026 | [8] -0.017 | [9] -0.003 | [10] -0.003

GLB1L2 (UniProt Q8IW92)
inactive: [1] -0.003 | [2] 0.007 | [3] 0.084 | [4] 0.018 | [5] 0.055 | [6] 0.012 | [7] -0.093 | [8] 0.07 | [9] -0.028 | [10] 0.021

GINS2 (UniProt Q9Y248)
inactive: [1] -0.104 | [2] 0.008 | [3] 0.012 | [4] -0.08 | [5] 0.009 | [6] -0.009 | [7] 0.005 | [8] -0.016 | [9] 0.051 | [10] -0.046

GPAT3 (UniProt Q53EU6)
inactive: [1] 0.001 | [2] 0.004 | [3] 0.122 | [4] 0.018 | [5] 0.009 | [6] -0.015 | [7] -0.153 | [8] 0.037 | [9] 0.026 | [10] 0.02

GNPNAT1 (UniProt Q96EK6)
inactive: [1] -0.029 | [2] 0.04 | [3] -0.023 | [4] 0 | [5] 0.037 | [6] 0.005 | [7] 0.171 | [8] 0.024 | [9] -0.007 | [10] -0.148

GPD1 (UniProt P21695)
inactive: [1] 0.003 | [2] 0.065 | [3] -0.007 | [4] 0.146 | [5] 0.025 | [6] -0.206 | [7] -0.068 | [8] 0.025 | [9] -0.004 | [10] 0

GLMN (UniProt Q92990)
inactive: [1] -0.009 | [2] -0.004 | [3] -0.007 | [4] -0.003 | [5] -0.018 | [6] 0.008 | [7] -0.031 | [8] 0.028 | [9] -0.022 | [10] 0.013

GOLGA5 (UniProt Q8TBA6)
inactive: [1] 0.028 | [2] -0.035 | [3] 0.079 | [4] -0.012 | [5] 0.003 | [6] 0.031 | [7] 0.021 | [8] 0.008 | [9] 0.039 | [10] 0.005

GNPDA1 (UniProt P46926)
inactive: [1] -0.002 | [2] 0.02 | [3] -0.035 | [4] -0.03 | [5] 0.016 | [6] 0.015 | [7] -0.061 | [8] 0.063 | [9] -0.003 | [10] -0.002

GOSR1 (UniProt O95249)
inactive: [1] 0.045 | [2] -0.02 | [3] -0.004 | [4] -0.088 | [5] 0.019 | [6] 0.022 | [7] 0.003 | [8] -0.073 | [9] 0.008 | [10] -0.034

GPS1 (UniProt A8K070)
inactive: [1] -0.1 | [2] 0.006 | [3] 0.042 | [4] 0.004 | [5] -0.026 | [6] 0.015 | [7] 0.079 | [8] 0.008 | [9] 0.034 | [10] -0.004

GID8 (UniProt Q9NWU2)
inactive: [1] -0.016 | [2] 0.008 | [3] 0.223 | [4] 0.04 | [5] 0.022 | [6] 0.006 | [7] -0.017 | [8] -0.019 | [9] 0.01 | [10] 0.042

GGH (UniProt Q92820)
inactive: [1] 0.017 | [2] -0.005 | [3] -0.04 | [4] 0.021 | [5] 0.044 | [6] 0.02 | [7] -0.166 | [8] 0.129 | [9] -0.006 | [10] -0.053

GOT2 (UniProt P00505)
inactive: [1] -0.033 | [2] 0.003 | [3] -0.035 | [4] 0.018 | [5] 0.02 | [6] 0.006 | [7] 0.096 | [8] 0 | [9] -0.035 | [10] -0.012

GP1BB isoform 2 (UniProt P13224)
inactive: [1] -0.014 | [2] -0.009 | [3] 0.018 | [4] -0.045 | [5] -0.002 | [6] 0.01 | [7] -0.002 | [8] 0.023 | [9] -0.044 | [10] -0.026

GPI (UniProt P06744)
inactive: [1] -0.009 | [2] -0.022 | [3] -0.043 | [4] -0.02 | [5] 0.009 | [6] 0.024 | [7] -0.001 | [8] 0.037 | [9] -0.007 | [10] 0.013

GIGYF2 (UniProt Q6Y7W6)
inactive: [1] -0.001 | [2] -0.017 | [3] 0.049 | [4] 0.093 | [5] -0.05 | [6] -0.001 | [7] 0.028 | [8] -0.055 | [9] 0.009 | [10] -0.001

GM2A (UniProt P17900)
inactive: [1] 0.085 | [2] -0.035 | [3] 0.369 | [4] 0.023 | [5] 0.058 | [6] 0.057 | [7] -0.047 | [8] -0.024 | [9] -0.057 | [10] 0.042

GPS1 isoform 6 (UniProt Q13098)
inactive: [1] 0.019 | [2] -0.014 | [3] -0.024 | [4] -0.009 | [5] -0.017 | [6] -0.001 | [7] -0.043 | [8] 0.05 | [9] 0.014 | [10] 0.015

GLG1 isoform 2 (UniProt Q92896)
inactive: [1] -0.029 | [2] -0.006 | [3] -0.005 | [4] 0.053 | [5] 0.022 | [6] 0.013 | [7] -0.011 | [8] 0.007 | [9] 0.003 | [10] 0.075

GINS4 (UniProt Q9BRT9)
inactive: [1] -0.008 | [2] 0.03 | [3] 0.017 | [4] 0.027 | [5] 0.002 | [6] -0.003 | [7] -0.012 | [8] 0.054 | [9] -0.004 | [10] -0.004

GNL2 (UniProt Q13823)
inactive: [1] -0.017 | [2] 0.027 | [3] 0.042 | [4] 0.005 | [5] 0.011 | [6] 0.003 | [7] -0.048 | [8] -0.005 | [9] 0.008 | [10] -0.016

GNB1L (UniProt Q9BYB4)
inactive: [1] -0.009 | [2] 0.047 | [3] 0 | [4] 0.015 | [5] -0.012 | [6] -0.007 | [7] -0.02 | [8] 0.047 | [9] -0.013 | [10] -0.003

Pulled one by one from above, two records:
GOLGA5 (UniProt Q8TBA6)
inactive: [1] 0.028 | [2] -0.035 | [3] 0.079 | [4] -0.012 | [5] 0.003 | [6] 0.031 | [7] 0.021 | [8] 0.008 | [9] 0.039 | [10] 0.005

GLMN (UniProt Q92990)
inactive: [1] -0.009 | [2] -0.004 | [3] -0.007 | [4] -0.003 | [5] -0.018 | [6] 0.008 | [7] -0.031 | [8] 0.028 | [9] -0.022 | [10] 0.013

Continuation.

GNS (UniProt P15586)
inactive: [1] 0.004 | [2] 0.024 | [3] -0.009 | [4] -0.015 | [5] 0.016 | [6] 0.01 | [7] 0.061 | [8] 0.027 | [9] 0.016 | [10] -0.004

GNE isoform 2 (UniProt Q9Y223)
inactive: [1] 0.024 | [2] 0.027 | [3] 0.03 | [4] -0.107 | [5] -0.095 | [6] 0.039 | [7] 0.008 | [8] -0.053 | [9] -0.003 | [10] -0.029

GPBP1 isoform 2 (UniProt Q86WP2)
inactive: [1] -0.009 | [2] -0.057 | [3] -0.019 | [4] 0.202 | [5] 0.068 | [6] 0.016 | [7] -0.006 | [8] -0.004 | [9] 0.012 | [10] -0.079

GNB1 (UniProt P62873)
inactive: [1] -0.048 | [2] 0.124 | [3] -0.016 | [4] -0.081 | [5] 0.008 | [6] -0.037 | [7] -0.072 | [8] 0.05 | [9] -0.038
active: [10] -0.287

GORAB (UniProt Q5T7V8)
inactive: [1] 0.121 | [2] 0.02 | [3] -0.013 | [4] 0.07 | [5] 0.005 | [6] -0.024 | [7] 0.088 | [8] -0.012 | [9] -0.023 | [10] 0.001

GIGYF1 (UniProt O75420)
inactive: [1] 0.065 | [2] -0.059 | [3] 0 | [4] 0.09 | [5] -0.095 | [6] 0.071 | [7] -0.001 | [8] 0.031 | [9] 0.008 | [10] -0.012

From the supplement of paper PMC10849652
